Source: article PMC3796546
No constants are given. Whether binding was seen depends on the method and setting. Binding seen in cells or lysates may run through a third protein. Some binding calls cover weakened binding; strength is not graded here.

By UniProt entry, the sequences of proteins in these tests, tags left out.
UniProt P25694: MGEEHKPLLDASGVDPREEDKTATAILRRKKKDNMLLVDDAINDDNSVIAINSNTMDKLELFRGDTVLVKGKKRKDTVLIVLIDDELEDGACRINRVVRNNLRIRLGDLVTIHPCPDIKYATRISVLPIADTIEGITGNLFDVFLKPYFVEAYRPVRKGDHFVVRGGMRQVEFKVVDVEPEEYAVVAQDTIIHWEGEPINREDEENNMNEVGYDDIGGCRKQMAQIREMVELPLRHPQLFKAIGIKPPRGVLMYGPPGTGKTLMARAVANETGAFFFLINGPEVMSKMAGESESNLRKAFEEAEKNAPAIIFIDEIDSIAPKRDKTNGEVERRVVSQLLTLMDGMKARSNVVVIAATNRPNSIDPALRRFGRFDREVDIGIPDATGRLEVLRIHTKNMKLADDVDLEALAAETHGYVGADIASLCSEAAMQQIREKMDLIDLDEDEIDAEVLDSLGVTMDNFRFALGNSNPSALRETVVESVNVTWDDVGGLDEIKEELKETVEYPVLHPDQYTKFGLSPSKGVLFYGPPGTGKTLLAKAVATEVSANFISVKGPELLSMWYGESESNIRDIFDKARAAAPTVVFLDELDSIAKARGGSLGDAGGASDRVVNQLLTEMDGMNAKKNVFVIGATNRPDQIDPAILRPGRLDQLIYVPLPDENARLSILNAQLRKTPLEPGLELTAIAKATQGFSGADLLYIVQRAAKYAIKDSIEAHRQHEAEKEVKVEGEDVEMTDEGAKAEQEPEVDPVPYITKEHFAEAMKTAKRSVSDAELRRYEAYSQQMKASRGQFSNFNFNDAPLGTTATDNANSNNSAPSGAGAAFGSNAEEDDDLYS

Tests used:
Assay in all cases: co-IP; yeast crude extract in RNP buffer (0.1 M HEPES pH 7.4, 100 mM NaCl, 0.1% NP-40) on anti-HA agarose beads, 4°C, 90 minutes; HA-Irc20 derivatives precipitated, Cdc48–3xMyc detected by anti-MYC western blot
[1] = target: T1, 3xHA-Irc20 (a.a. 1034–1238) (S. cerevisiae) (UniProt Q06554)
T1 sequence: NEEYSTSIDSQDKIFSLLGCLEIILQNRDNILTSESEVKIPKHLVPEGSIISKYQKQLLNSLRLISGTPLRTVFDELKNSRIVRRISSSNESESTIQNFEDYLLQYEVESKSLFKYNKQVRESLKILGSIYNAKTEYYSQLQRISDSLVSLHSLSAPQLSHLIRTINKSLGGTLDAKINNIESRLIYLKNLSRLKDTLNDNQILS

[2] = target: T2, 3xHA-Irc20 (a.a. 1–1238) (S. cerevisiae) (UniProt Q06554)
T2 sequence: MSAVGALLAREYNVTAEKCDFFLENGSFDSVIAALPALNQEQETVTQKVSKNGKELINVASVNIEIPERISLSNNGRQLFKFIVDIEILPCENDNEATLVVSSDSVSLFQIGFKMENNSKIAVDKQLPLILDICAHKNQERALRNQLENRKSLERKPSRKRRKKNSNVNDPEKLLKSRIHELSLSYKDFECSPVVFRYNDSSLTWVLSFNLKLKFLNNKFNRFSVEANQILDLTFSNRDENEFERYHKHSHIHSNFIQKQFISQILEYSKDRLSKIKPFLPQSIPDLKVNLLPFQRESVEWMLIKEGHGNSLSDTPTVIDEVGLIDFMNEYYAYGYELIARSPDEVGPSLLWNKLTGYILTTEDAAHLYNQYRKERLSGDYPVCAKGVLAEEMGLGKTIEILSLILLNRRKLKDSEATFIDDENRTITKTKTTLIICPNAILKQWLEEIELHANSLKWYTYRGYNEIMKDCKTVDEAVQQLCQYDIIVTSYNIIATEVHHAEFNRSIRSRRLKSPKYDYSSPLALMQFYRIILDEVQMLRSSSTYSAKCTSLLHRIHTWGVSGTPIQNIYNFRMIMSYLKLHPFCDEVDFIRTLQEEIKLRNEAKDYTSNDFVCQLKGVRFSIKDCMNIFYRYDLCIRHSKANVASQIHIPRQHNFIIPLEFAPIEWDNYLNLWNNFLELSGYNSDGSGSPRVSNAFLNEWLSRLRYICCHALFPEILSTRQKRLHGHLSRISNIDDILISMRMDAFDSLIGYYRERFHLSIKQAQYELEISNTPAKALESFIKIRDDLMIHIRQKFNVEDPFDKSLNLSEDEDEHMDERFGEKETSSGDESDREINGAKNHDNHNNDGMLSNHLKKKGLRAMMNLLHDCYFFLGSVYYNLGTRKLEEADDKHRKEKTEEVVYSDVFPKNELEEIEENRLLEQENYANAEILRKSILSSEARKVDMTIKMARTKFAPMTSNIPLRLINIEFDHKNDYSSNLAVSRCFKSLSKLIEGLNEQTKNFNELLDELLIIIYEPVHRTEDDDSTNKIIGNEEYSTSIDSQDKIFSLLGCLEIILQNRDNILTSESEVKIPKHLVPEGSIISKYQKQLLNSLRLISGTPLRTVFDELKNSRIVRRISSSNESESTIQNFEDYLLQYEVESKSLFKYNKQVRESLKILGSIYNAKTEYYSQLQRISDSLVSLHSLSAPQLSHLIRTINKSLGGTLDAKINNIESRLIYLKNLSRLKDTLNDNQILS

[3] = target: T3, 3xHA-Irc20 (a.a. 584–882) (S. cerevisiae) (UniProt Q06554)
T3 sequence: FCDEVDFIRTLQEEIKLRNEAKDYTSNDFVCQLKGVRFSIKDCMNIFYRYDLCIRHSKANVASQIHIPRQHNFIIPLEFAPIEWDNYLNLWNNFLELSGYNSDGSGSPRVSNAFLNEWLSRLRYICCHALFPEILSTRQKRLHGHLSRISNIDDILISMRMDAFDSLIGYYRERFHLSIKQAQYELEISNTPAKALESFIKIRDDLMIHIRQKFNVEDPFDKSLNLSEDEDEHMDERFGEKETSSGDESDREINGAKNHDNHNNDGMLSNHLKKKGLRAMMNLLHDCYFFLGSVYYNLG

[4] = target: T4, 3xHA-Irc20 (a.a. 883–1033) (S. cerevisiae) (UniProt Q06554)
T4 sequence: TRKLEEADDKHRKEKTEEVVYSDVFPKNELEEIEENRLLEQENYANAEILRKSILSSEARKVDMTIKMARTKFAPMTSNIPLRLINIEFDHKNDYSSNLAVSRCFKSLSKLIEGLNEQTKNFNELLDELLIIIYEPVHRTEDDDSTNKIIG

[5] = target: 3xHA-Irc20-D534A, E535A ATPase mutant (S. cerevisiae) (UniProt Q06554)

In the case of Cdc48–3xMyc (from UniProt P25694 1-835), the binding [1] is reported as “binds”, the binding [2] is reported as “binds” and the binding [3] is reported as “no binding”. The binding [4] was “binds” and the binding [5] was “binds”.
